Results from PubChem BioAssay AID1347423 (Functional Genomics Laboratory (NCATS/FGL), 2020).
Hit rate of the full screen: of about 52,000 sequences, about 210 (0.4%) were called active.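 The calls were made as follows: active = gene whose silencing raises cell survival under the drug, median off-target-corrected z-score across its silencing RNAs 2 or more; inactive = the rest.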 Some of the results follow.

Test: Resistance to Poly (ADP-Ribose) Polymerase inhibitor: Gene Identification via Genome-wide siRNA Screen
Settings: mouse BRCA2 R2336H ES cells, olaparib, CellTiter-Glo viability; stronger effect = higher value
Summary of the method: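 Genome-wide siRNA screen (3 siRNAs/gene, 20 nM) in mouse ES cells carrying hypomorphic BRCA2 R2336H; olaparib 500 nM added 48 h post-transfection, CellTiter-Glo viability 72 h later. Normalized to plate-median negative control; MAD z-scores, gene median, seed-adjusted.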

Sequence	z-score
GGUCACAGAUAAGAAUGACTT against Cd96	inactive: 0.663
GGUAUGGAGUGAAGUGACCTT against Mmp11	inactive: 0.271
GGCUAACACUUAAAUUAGCTT against Atoh8	inactive: 0.118
CCAUCUACCGGAAAAUAACTT against Cecr5	inactive: -0.0915
GGAGUUUCAGCAGUCGUGATT against Prkrip1	inactive: 1.16
GGACCAUAAAGUGUUACUATT against D230019K20Rik	inactive: -1.24
GAAAAAAAUCCGUUCCCUCTT against Mrpl33	inactive: 0.246
GGCUGAUUAGAAUACCUCCTT against Adra2b	inactive: 0.511
GUUAUAGCGGCGAAGGUGUTT against BC049812	inactive: -0.322
GGCCAUUUUCAACAAGAACTT against BC017643	inactive: 1.09
GGUUCUGAUUUUUAGUGGUTT against E230019M04	inactive: -0.102
CGAUGACACUAUUAUGAGATT against B930007M17Rik	inactive: 0.387
GGAUAGAGAGAGGUAGCAUTT against Lrrc15	inactive: 0.131
CCCUGAGGCAAAGAAAUGUTT against Msh3	inactive: 0.439
GCGAAACUACCGACAGUGUTT against Irf2	inactive: -1.8
GGGAUUUUGUCAUCUAUUCTT against 4632412E09Rik	inactive: -1.69
GGCCCAAUUGUCGAUAUCCTT against 2300002M23Rik	inactive: 0.824
GGCAUUACGUCAUGUACUATT against Aes	inactive: -0.0855
CAGCAAUGACCUGAUGUUATT against Klk21	inactive: -0.712
GGGUGAUAAAAUUCAGAUUTT against Gpr88	inactive: 0.00429
GCAGUUGGGACAAGCCUUUTT against Als2cr3	inactive: -0.815
CCAUGUUCAAGUCAAAACUTT against 9630046K23Rik	inactive: 0.706

Sequence	z-score
GGAGAAGUAUGAAAUAGCATT against Rad51	inactive: -2.51
GGUUUUUGUUGUAAUAGGCTT against Olfr915	inactive: -0.232
GGGAGAUGAACCUCUCAGATT against 0610038K03Rik	inactive: -0.243
GCUGAUCAAAUUGGCCUGUTT against Olfr984	inactive: -1.53
CGACCUCCAGUAAUAACCUTT against Olfr310	inactive: -1.95
GGUGCCAUACCAUUUCCUATT against Olfr351	inactive: 0.539
GGAAAAUCUUUACAGAGCGTT against Zfp617	inactive: 0.985
GGAUACCAAUAGAACAAAGTT against C130032F08Rik	inactive: -0.403
GGUACUUUCCUUUCGAUGCTT against A030001H23Rik	inactive: 1.01
GGUUGGUUCAGAUAAGUCCTT against AU040377	inactive: 0.682
GGAAGAUGGUUUGUAGAUATT against Ddx56	inactive: 0.0611
GGAUGUUUUGGAGCCCUAGTT against Scml4	inactive: -1.59
GAUCCUGCAUCUUUAGUGUTT against Ascl1	inactive: -0.928
GCCGAUUCAAUACUGUGACTT against Rnf149	inactive: -0.608
GGAAGAAUGUAAGUAUACCTT against Zfp96	inactive: 1.92
GGGAUUGGCACUUUCCAAGTT against Akap7	inactive: -0.776
GGAUUGGUUCAUGACCUGATT against 4921513B05Rik	inactive: -1.39
GGAGGUGUUUUAUAUGAACTT against BC020077	inactive: -0.246
GGGUGAGUGUCGGAACUUUTT against Sema6b	inactive: 0.213
GGGAGAUCUCUCACAGAUCTT against Gja10	inactive: -1.95
GGUUUUAAAGCAUCUUCGUTT against Pard6g	inactive: 0.236
GGGAGACCAUUGUUCAACUTT against Stk23	inactive: -0.0954

Another view of some results above:
Sequence,z-score
GGAGGUGUUUUAUAUGAACTT against BC020077,inactive: -0.246
GGGUGAGUGUCGGAACUUUTT against Sema6b,inactive: 0.213
GGGAGAUCUCUCACAGAUCTT against Gja10,inactive: -1.95

Further records.

Sequence	z-score
GGAGGAAGUUGUAUAUUUUTT against Psmd10	inactive: -0.658
GGCAUAUAAGGACUUCUACTT against C5r1	inactive: 0.224
GAUGGUGUCUAGUGAGAGCTT against Oxct2b	inactive: 0.802
GGCUACUCAACCGAUAGUGTT against 2610039C10Rik	inactive: 0.329
GGACGUAGAUUGGUACCUCTT against 2210018M11Rik	inactive: 0.178
CCCAUUGAACAGGAUGUUATT against 2310005O14Rik	inactive: 0.316
GGAAGUGUGAACUUCAUCATT against Zdhhc6	inactive: 1.18
GCGAACAUCCCAACAACAGTT against Igfbp4	inactive: -0.0551
GCUACUGAGUUAUAGAAAGTT against Olfr1316	inactive: 0.323
GGAAAACUUACCUUCUUAATT against 2610020C11Rik	inactive: -1.23
GGAAGCCACCUUAACAUUATT against 1700012B18Rik	inactive: -0.0151
CCACAGUAUCUUAAUGCAATT against Eif3s6	inactive: -2.14
GCCAUGCAAAUCGAUGGGUTT against Rora	inactive: 0.641
GCUGGACUAAUCGACAGCATT against 5730559C18Rik	inactive: -0.0932
CCACAUCGAGGACUGGUAGTT against 1110049G11Rik	inactive: -0.141
CCUAUCAUGUUAAAAACAGTT against Grem2	inactive: 1.02
GGCCAUUGCCAUUGUGUGUTT against 1700095N21Rik	inactive: 0.00528
GGACUUGGAGUUUCGUAAATT against Lmnb1	inactive: 3.07
GGUCAGCAGUUUUCUAACUTT against C130038G02Rik	inactive: -0.394
GGACCACUAGACCUGAUAATT against Itgb1bp1	inactive: 0.746
GCCUGUGUAUUACUUUUUUTT against 6720455I24Rik	inactive: -0.536
